In the supplement of paper PMC8256030 one finds percent effect data, which are given here for 9 compounds.

Several values for one entry are separate records, joined by “and”; a condition that tells them apart may be missing. Identical values can stand only once. The list shows a part of the results. Single values are uncertain here, since repeats match poorly.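 HEK293T cells were given each compound shortly before transfection with a reporter in which red mCherry is followed by the SARS-CoV-2 frameshift element and then GFP in the −1 frame, so GFP appears only after frameshifting.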

In this assay the test system is SARS-CoV-2 -1 PRF reporter mCherry-FSE-GFP(-1). The assay can be described thus: percent effect, decrease of GFP/mCherry ratio (-1 PRF reporter) relative to controls; higher = stronger frameshift inhibition. As to conditions: 10 µM; 24 h; HEK293T.
Regarding `O=C(N[C@H]1CCS[C@H]2CCC[C@@H](C(=O)O)N2C1=O)[C@@H](S)Cc1ccccc1` [omapatrilat], the percent effect was -9.78%. In the case of `CC(C)(C)CC(C)(C)c1ccc(OCCO)cc1` [octoxinol], the percent effect is -0.725%.

In the case of `C=C[C@H]1CN2CC[C@H]1C[C@H]2[C@H](O)c1ccnc2ccc(OC)cc12`, the percent effect is 2.51% and -10.9%.

Turning to `CCCn1c(=O)[nH]c(=O)c2nc[nH]c21` [enprofylline], the percent effect was -5.4%. In the case of `CCCc1cc(=O)[nH]c(=S)[nH]1` [propylthiouracil], the percent effect came out at 0.338%. In the case of `C[C@](N)(Cc1ccc(O)cc1)C(=O)O` [metirosine], the percent effect was -3.41%. Turning to `CN[C@H](C(=O)N[C@H](C(=O)N(C)[C@H](/C=C(\C)C(=O)O)C(C)C)C(C)(C)C)C(C)(C)c1ccccc1` [taltobulin], the percent effect is -9.62%. With `O=C(O)Cn1c(C(=O)Nc2nc(-c3ccccc3Cl)cs2)cc2ccccc21` [lintitript], the percent effect was -2.36%. For the compound `CN1C2CCCC1CC(NC(=O)c1nn(C)c3ccccc13)C2` (centres undefined) [Granisetron], the percent effect is -0.612%.
